From the supplement of paper PMC4862054
Most entries show no effect beyond the scatter of the controls. *1 amine or outer side, *2 acyl side, *3 side chain or, on linkers, in order; H or OH if unused. Where a SMILES comes first, the peptide text is derived from it. Bridges are numbered along the chain shown (N, C = ends). Roman numbers before positions name the chains, in order. [ ]: non-standard residue; d: D form. Actinocin(9to1) = Cc1c2oc3c(C)ccc(C(=O)[*:1])c3nc-2c(C(=O)[*:2])c(N)c1=O; NMeV = CN[C@H](C(=O)O)C(C)C; Sar = CNCC(=O)O

Assays:
Assay in all cases: normalised response (% of control), CellTox Green; higher = less cell death (100 = DMSO, 0 = benzethonium chloride kill control)
Conditions in all cases: incubation time: 72 h
MDA-MB-453 = test system: MDA-MB-453
Method: (§1)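 DSRT, 72 h incubation, CellTox Green / CellTiter-Glo readout. Signal is normalised to DMSO and benzethonium chloride controls. Value is the normalised response at dose 2.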

BT-474 = test system: BT-474
Method: as §1

MDA-MB-231 = test system: MDA-MB-231
Method: as §1

HCC1599 = test system: HCC1599
Method: as §1

Hs578T = test system: Hs578T
Method: as §1

CAL-120 = test system: CAL-120
Method: as §1

BT-549 = test system: BT-549
Method: as §1

MCF-10A = test system: MCF-10A
Method: as §1

MFM-223 = test system: MFM-223
Method: as §1

HDQ-P1 = test system: HDQ-P1
Method: as §1

HCC1143 = test system: HCC1143
Method: as §1

DU-4475 = test system: DU-4475
Method: as §1

MDA-MB-436 = test system: MDA-MB-436
Method: as §1

CAL-51 = test system: CAL-51
Method: as §1

HCC1937 = test system: HCC1937
Method: as §1

CAL-85-1 = test system: CAL-85-1
Method: as §1

CAL-148 = test system: CAL-148
Method: as §1

MDA-MB-468 = test system: MDA-MB-468
Method: as §1

Compound | normalised response (MDA-MB-453) | normalised response (BT-474) | normalised response (MDA-MB-231) | normalised response (HCC1599) | normalised response (Hs578T) | normalised response (CAL-120) | normalised response (BT-549) | normalised response (MCF-10A) | normalised response (MFM-223) | normalised response (HDQ-P1) | normalised response (HCC1143) | normalised response (DU-4475) | normalised response (MDA-MB-436) | normalised response (CAL-51) | normalised response (HCC1937) | normalised response (CAL-85-1) | normalised response (CAL-148) | normalised response (MDA-MB-468)
CC(C)(C)c1nc(-c2cccc(NS(=O)(=O)c3c(F)cccc3F)c2F)c(-c2ccnc(N)n2)s1 [Dabrafenib] (2.5 nM) | 97.6% | 105% | 119% | 105% | 125% | 94.9% | 105% | 103% | 97% | 107% | 113% | 101% | 87.9% | 103% | 118% | 95.2% | 102% | 108%
CO[C@H]1C[C@@H]2CC[C@@H](C)[C@@](O)(O2)C(=O)C(=O)N2CCCC[C@H]2C(=O)O[C@H]([C@H](C)C[C@@H]2CC[C@@H](OCCO)[C@H](OC)C2)CC(=O)[C@H](C)/C=C(\C)[C@@H](O)[C@@H](OC)C(=O)[C@H](C)C[C@H](C)/C=C/C=C/C=C/1C [Everolimus] (0.1 nM) | 91.1% | 102% | 96.5% | 93.3% | 60.4% | 101% | 110% | 103% | 85.1% | 111% | 93.6% | 93% | 89.2% | – | 86.5% | 95% | 98.8% | 87.5%
Nc1cc(C(F)(F)F)c(-c2cc(N3CCOCC3)nc(N3CCOCC3)n2)cn1 [Buparlisib] (10 nM) | 93.9% | 99.6% | 76.3% | 86.5% | 100% | 101% | 105% | 101% | 100% | 103% | 108% | 95.1% | 99.2% | 101% | 96.5% | 97.2% | 95.5% | 131%
O=C(Nc1c[nH]nc1-c1nc2ccc(CN3CCOCC3)cc2[nH]1)NC1CC1 [AT9283] (1 nM) | 108% | 101% | 88.7% | 118% | 114% | 107% | 112% | 81.9% | 102% | 119% | 112% | 112% | 103% | 78.3% | 113% | 101% | 60% | 69.1%
COc1ccc(-c2cc3c(C)nc(N)nc3n([C@H]3CC[C@H](OCCO)CC3)c2=O)cn1 (10 nM) | 94.4% | 100% | 94% | 97.6% | 114% | 98.8% | 102% | -55.7% | 98% | – | 77.8% | 93.9% | 93.5% | 79.1% | 105% | 102% | 99.4% | 67.3%
CCc1cnn2c(NCc3ccc[n+]([O-])c3)cc(N3CCCC[C@H]3CCO)nc12 [Dinaciclib] (1 nM) | 98.8% | 104% | 111% | 98.1% | 125% | 97.3% | 102% | 86.8% | 97.3% | 115% | 65.8% | 96.4% | 98.7% | 102% | 108% | 95.5% | 71.3% | 119%
COc1cc2c(Oc3ccc(NC(=O)C4(C(=O)Nc5ccc(F)cc5)CC4)cc3F)ccnc2cc1OCCCN1CCOCC1 [Foretinib] (1 nM) | 99.6% | 99.8% | 112% | 104% | 85% | 99.6% | 98.7% | 98.1% | 75.6% | 98.8% | 101% | 99.7% | 89.9% | 94% | 110% | 94.4% | 101% | 103%
CN[C@@H](C)C(=O)N[C@H]1CN(C(=O)CC(C)C)CC[C@H]2CC[C@@H](C(=O)NC(c3ccccc3)c3ccccc3)N2C1=O [AT-406] (10 nM) | 87.8% | 103% | 97.3% | 96.8% | 126% | 88.3% | 94.7% | 108% | 100% | 110% | 111% | 96.5% | 98% | 112% | 110% | 92.4% | 110% | 127%
Cc1c2oc3c(C)ccc(C(=O)N[C@@H]4C(=O)N[C@H](C(C)C)C(=O)N5CCC[C@H]5C(=O)N(C)CC(=O)N(C)[C@@H](C(C)C)C(=O)O[C@@H]4C)c3nc-2c(C(=O)N[C@@H]2C(=O)N[C@H](C(C)C)C(=O)N3CCC[C@H]3C(=O)N(C)CC(=O)N(C)[C@@H](C(C)C)C(=O)O[C@@H]2C)c(N)c1=O [Dactinomycin] (1 nM) (I: T[dV]P[Sar][NMeV] / II: T[dV]P[Sar][NMeV]; ester I:1-I:C, II:1-II:C; linker I:N-II:N via Actinocin(9to1)) | 94.3% | 101% | 87.2% | 95.4% | 94.8% | 96% | 102% | 103% | 89.4% | 112% | 107% | 95.5% | 89.6% | 103% | -35.7% | 100% | 83.9% | 105%
